Measured values from the M2OR odorant receptor database.
Where a chain is given by its changes, count along the chain named. This is a selection; strong and weak results do not stand in their true shares. Calls are pooled over several reports, among them a noisy single-well screen. This is one part of the list.

Chains of the proteins cited; added tags and fusions are not shown. A line that says so, or that is headed by a name, gives the form on record, which may keep a tag or linker.
OR2M7, as listed by the source: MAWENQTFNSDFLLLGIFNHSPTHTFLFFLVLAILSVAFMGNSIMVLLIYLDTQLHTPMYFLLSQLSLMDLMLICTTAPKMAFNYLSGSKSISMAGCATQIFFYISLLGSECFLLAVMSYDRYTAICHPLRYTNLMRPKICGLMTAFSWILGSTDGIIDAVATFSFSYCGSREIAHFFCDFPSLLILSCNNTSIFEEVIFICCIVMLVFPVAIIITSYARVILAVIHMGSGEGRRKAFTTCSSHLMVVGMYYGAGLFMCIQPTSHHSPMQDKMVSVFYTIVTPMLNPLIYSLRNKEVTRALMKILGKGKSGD

Tests used:
Details in all cases: stereoisomer not certain
[1] = molecular target: T1, OR2M4 (Homo sapiens) (UniProt Q96R27)
T1 sequence (whole entry): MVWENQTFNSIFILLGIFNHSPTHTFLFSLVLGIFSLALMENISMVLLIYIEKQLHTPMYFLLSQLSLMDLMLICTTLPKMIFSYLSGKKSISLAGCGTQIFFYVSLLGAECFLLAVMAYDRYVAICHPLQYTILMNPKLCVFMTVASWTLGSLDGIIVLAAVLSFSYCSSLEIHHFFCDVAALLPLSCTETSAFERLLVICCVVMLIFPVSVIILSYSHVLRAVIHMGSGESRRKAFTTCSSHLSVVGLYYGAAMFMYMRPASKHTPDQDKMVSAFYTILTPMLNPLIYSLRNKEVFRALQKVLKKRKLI
How it was run: (§1)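 Whether a receptor–molecule pair is responsive (active) rests on the original authors' judgment that its measured signal was statistically different from baseline. Pairs without that judgment are non-responsive (inactive). Sources used varied assay methods, commonly transient luciferase assays in mammalian cell lines.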

[2] = molecular target: T2, OR2M7 (Homo sapiens) (UniProt Q8NG81)
T2 sequence (whole entry): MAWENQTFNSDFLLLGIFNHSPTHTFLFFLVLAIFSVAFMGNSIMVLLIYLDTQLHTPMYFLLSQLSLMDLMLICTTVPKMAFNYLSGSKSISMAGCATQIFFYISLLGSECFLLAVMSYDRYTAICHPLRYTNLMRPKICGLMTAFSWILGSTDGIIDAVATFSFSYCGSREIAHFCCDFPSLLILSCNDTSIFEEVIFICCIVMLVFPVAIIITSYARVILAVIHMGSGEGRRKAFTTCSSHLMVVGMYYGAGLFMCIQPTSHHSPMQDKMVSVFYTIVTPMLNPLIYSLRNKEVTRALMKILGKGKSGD
How it was run: as §1

[3] = system: T3, OR2M7
T3 sequence (whole entry): T2 sequence (whole entry) with F35L, V78A, C178F
How it was run: as §1

[4] = system: T4, OR2M7; remark: listed apart in the source
T4 sequence (whole entry): T2 sequence (whole entry) with F35L, V78A, C178F, D191N
How it was run: as §1

[5] = system: T5, OR2S1
T5 sequence (whole entry): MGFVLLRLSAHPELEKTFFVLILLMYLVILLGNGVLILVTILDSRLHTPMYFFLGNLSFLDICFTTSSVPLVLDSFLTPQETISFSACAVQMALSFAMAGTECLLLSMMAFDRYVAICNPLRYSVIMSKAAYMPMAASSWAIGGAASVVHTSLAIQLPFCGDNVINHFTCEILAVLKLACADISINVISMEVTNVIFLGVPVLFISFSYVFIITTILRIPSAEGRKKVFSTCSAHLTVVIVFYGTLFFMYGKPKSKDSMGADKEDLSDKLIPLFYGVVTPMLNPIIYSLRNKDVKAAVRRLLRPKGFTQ
How it was run: as §1

[6] = molecular target: T6, OR2T10 (Homo sapiens) (UniProt Q8NGZ9)
T6 sequence (whole entry): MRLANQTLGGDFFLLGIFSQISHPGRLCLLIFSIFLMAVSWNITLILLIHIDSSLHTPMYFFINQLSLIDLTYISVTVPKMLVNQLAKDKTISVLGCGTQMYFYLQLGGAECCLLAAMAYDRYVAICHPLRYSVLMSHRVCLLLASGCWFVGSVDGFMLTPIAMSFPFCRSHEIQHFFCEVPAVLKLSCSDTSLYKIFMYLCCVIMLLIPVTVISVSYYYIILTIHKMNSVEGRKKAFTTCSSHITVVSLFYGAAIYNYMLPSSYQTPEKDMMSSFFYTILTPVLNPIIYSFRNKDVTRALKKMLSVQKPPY
How it was run: as §1

[7] = system: T7, OR2T1
T7 sequence (whole entry): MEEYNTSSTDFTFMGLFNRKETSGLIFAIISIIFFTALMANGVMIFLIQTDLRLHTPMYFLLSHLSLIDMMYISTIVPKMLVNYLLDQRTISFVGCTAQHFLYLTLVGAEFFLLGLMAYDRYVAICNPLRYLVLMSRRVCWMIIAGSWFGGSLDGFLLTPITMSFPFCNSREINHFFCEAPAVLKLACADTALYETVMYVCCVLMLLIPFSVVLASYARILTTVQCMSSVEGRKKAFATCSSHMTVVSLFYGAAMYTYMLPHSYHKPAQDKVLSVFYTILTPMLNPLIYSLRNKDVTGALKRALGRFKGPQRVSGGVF
How it was run: as §1

[8] = system: T8, OR2T2
T8 sequence (whole entry): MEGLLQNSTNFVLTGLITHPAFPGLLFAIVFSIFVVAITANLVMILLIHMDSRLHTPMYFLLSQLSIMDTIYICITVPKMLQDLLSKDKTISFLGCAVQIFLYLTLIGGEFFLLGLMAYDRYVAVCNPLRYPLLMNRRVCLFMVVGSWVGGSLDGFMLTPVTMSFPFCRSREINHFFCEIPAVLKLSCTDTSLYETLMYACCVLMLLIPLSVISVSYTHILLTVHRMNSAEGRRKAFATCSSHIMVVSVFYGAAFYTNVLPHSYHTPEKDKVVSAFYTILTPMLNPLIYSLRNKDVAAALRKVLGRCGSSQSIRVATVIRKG
How it was run: as §1

[9] = molecular target: T9, OR2T3 (Homo sapiens) (UniProt Q8NH03)
T9 sequence (whole entry): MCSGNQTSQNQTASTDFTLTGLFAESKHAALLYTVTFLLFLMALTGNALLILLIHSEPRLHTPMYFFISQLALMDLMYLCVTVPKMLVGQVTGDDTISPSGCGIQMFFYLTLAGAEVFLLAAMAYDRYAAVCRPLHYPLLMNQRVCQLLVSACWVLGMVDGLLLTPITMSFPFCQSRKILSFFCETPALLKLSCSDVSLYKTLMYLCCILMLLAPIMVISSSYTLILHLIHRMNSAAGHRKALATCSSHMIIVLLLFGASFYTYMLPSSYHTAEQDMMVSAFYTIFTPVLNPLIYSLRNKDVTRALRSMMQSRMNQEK
How it was run: as §1

[10] = system: T10, OR2T4
T10 sequence (whole entry): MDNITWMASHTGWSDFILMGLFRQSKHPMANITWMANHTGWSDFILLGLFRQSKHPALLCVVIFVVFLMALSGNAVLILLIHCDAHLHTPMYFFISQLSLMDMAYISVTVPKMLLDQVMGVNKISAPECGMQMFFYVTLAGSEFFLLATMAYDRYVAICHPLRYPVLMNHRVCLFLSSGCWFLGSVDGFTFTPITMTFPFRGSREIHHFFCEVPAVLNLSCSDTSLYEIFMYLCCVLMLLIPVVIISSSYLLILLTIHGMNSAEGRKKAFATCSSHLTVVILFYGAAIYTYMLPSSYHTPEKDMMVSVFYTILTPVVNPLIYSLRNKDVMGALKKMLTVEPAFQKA
How it was run: as §1

Measured: odorant receptor agonist call;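 further: active if original authors judged signal statistically different from baseline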

CCC(C)=O
inactive: all assays above

CCCCOC(C)=O
inactive: all assays above

CS
active: [8]
inactive: all other assays above
